This is one part of the list.

The results in this text go back to the supplement of paper PMC8426693.

This assay deals with SARS-CoV-2 frameshift pseudoknot (PK) RNA. Nature of the assay: NMR binding call after quantification (hit when 2 of 3 NMR criteria are met) (binary (1 = binding, 0 = not binding)); higher = binding. The settings on record: RNA concentration 10 µM; fragment concentration 200 µM; 293 K.
Take `COCC(=O)Nc1ccc(O)cc1`: the NMR binding call came out at 0.

In the case of `Cc1nc2ccccc2n1CCC(N)=O`, the NMR binding call came to 0. In the case of `Cc1nc(CC(=O)N2CCOCC2)cs1`, the NMR binding call was found to be 0.

As for `CCc1ccc(OCC(=O)N2CCCCC2)cc1`, the NMR binding call came to 0.

With `CCOC(=O)C1CCN(c2cnccn2)CC1`, the NMR binding call stood at 0. For the compound `CC1CCN(C(=O)CCCc2ccccc2)CC1`, the NMR binding call is 0.

For the compound `CCOc1ncccc1C(N)=O`, the NMR binding call was found to be 0. As for `CNC(=O)Nc1nc2ccc(OC)cc2s1`, the figure is 1; as for `CCn1c(NC(C)=O)nc2ccccc21`, 0. Consider `COCc1cc(C(N)=O)no1`, for which the NMR binding call is 0. As for `COc1ccccc1NC(=O)c1ccc(C)s1`, the figure is 0; as for `CNCCC1CCCCC1`, 0. `OC1CCN(Cc2ccsc2)CC1`: the NMR binding call came out at 0. As for `NC(=S)Nc1ccccc1OC(F)(F)F`, the NMR binding call came to 0.

With `CC(=O)N1Cc2ccc(N)cc2C1`, the NMR binding call was found to be 0.

For `CN1CCN(C(=O)Nc2ccccc2)CC1`, the NMR binding call amounted to 0. With `CCNC(=O)N1CCN(C(C)=O)CC1` the figure was 0; with `Cc1ncsc1C(=O)N1CCNC(=O)C1`, 0. For `COCC(=O)Nc1nc(-c2ccccc2)cs1`, the NMR binding call was determined as 0. For `O=C(NCc1ccccc1)c1cccc(F)c1`, the NMR binding call stood at 0. Consider `C1CN(Cc2nc(C3CC3)no2)CCO1`, for which the NMR binding call came out at 0. `CCN(CC)S(=O)(=O)c1ccc(C)cc1`: the NMR binding call is 0. With `CC1CCC(NC2CCC(O)CC2)CC1` (stereo not given) the figure was 0; with `CNC(=O)CNc1ncnc2sccc12`, 0; with `Cc1cnc(NC(=O)CCC2CCCC2)s1`, 0. On to `CC1(C)CN(c2ncccc2F)CC1O` (stereo not given), for which the NMR binding call stood at 0. As for `CSc1nsc(NC(C)=O)n1`, the NMR binding call amounted to 0. For the compound `CC(=O)Nc1ccc(C#N)cc1`, the NMR binding call worked out at 0. For the compound `COC(=O)COc1ccc(C#N)cc1`, the NMR binding call was 0.

For the compound `CNC(=O)CN(C)C1CCCCCC1`, the NMR binding call was 0. Take `CC1CN(S(=O)(=O)N(C)C(C)C)CCO1` (stereo not given): the NMR binding call was determined as 0. For the compound `CS(=O)(=O)NCCc1ccc(F)cc1`, the NMR binding call worked out at 0. As for `Cc1csc(CNC(=O)C2CCC2)n1`, the figure is 0.

On to `O=C(CN1CCCC1)Nc1cccc(Cl)c1`, for which the NMR binding call worked out at 0.

Regarding `CC(CS(N)(=O)=O)c1ccccc1` (stereo not given), the NMR binding call was 0. For `Cl.O=C(O)CN1CCC(c2ccccc2)CC1`, the NMR binding call is 0.

Regarding `CC(C)NC(=O)c1cc[nH]n1`, the NMR binding call worked out at 0. As for `CC(N)C(=O)Nc1cc(C(F)(F)F)n[nH]1.Cl` (stereo not given), the NMR binding call came out at 0. For `O=C(Cc1ccc(F)cc1)NC1CCCCC1`, the NMR binding call came out at 0. Turning to `CC1CCN(Cc2c[nH]c3ccccc23)CC1`, the NMR binding call worked out at 0.
